Measured values from the supplement of paper PMC7858590.
Where “and” joins values, the source holds several entries; their conditions need not be identical. Identical values can stand only once. ± gives the standard deviation of the averaged measurements. The full ranking holds about 3,800 compounds; the median of “cell shape (eccentricity) Z-score vs DMSO control” is about 1.1, and the lowest 2% start at about -4.7. The list shows a part of the results.

test system: human monocyte-derived macrophages (M0); test: cell shape (eccentricity) Z-score vs DMSO control; higher = more elongated, M2-like morphology; conditions: 20 µM; 24 h; macrophage state: M0 (M-CSF)
Description: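 Primary human monocyte-derived macrophages (M-CSF differentiated, pooled from 4 donors, 5000 cells/well in 384-well plates) were treated with each compound at 20 uM for 24 h, then fixed and stained with phalloidin/DAPI and imaged on an Opera Phenix (6 fields, about 1000 cells/well). Cell eccentricity was measured with CellProfiler, and a Z-score (t-test) was computed against 4 DMSO control wells in the same row. Negative values mean round (M1-like) cells and positive values mean elongated (M2-like) cells; the paper's hit cutoffs are Z <= -4 (M1) and Z >= 6 (M2). Scale: negative = round, M1-like.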

**Q.** How did the “cell shape (Z-score)” value turn out when CC(=O)OCC(CCn1cnc2cnc(N)nc21)COC(C)=O was run?
**A.** 0.62

**Q.** COc1cc(/C=C/C(=O)NCC(O)c2ccc(O)cc2)ccc1O (stereo not drawn) was tested. Which “cell shape (Z-score)” value did it give?
**A.** 2.75

**Q.** For CS(=O)(=O)CCNCc1ccc(-c2ccc3ncnc(Nc4ccc(OCc5cccc(F)c5)c(Cl)c4)c3c2)o1, which “cell shape (Z-score)” value is on record?
**A.** -2.55 and -1.02

**Q.** With C/C=C1\C(OC2OC(CO)C(O)C(O)C2O)OC=C(C(=O)OC)C1CC(=O)OCC1C(C)C(OC(=O)CC2C(C(=O)OC)=COC(OC3OC(CO)C(O)C(O)C3O)/C2=C\C)CC1C(CO)CO (stereo not drawn) as the molecule, how does the “cell shape (Z-score)” value read?
**A.** -0.44

**Q.** With C[C@]12CCC[C@](C)(C(=O)O)C1CCC13C=C(CO)C(CCC12)C3 (stereo partly drawn) as the molecule, how does the “cell shape (Z-score)” value read?
**A.** -0.163

**Q.** CC(=O)O[C@H]1CC[C@H](C)[C@@]2(C)[C@H](OC(C)=O)c3c(C)coc3C(=O)[C@H]12 was tested. Which “cell shape (Z-score)” value did it give?
**A.** 0.188

**Q.** With O=C(O)CCc1nc(-c2ccccc2)c(-c2ccccc2)o1 as the molecule, how does the “cell shape (Z-score)” value read?
**A.** -1.06

**Q.** For N=C(N)NC(=O)c1nc(Cl)c(N2CCCCCC2)nc1N, which “cell shape (Z-score)” value is on record?
**A.** 0.678

**Q.** For CC(=O)O[C@@H]1[C@@H](OC(C)=O)[C@H](C)O[C@@H](O[C@H]2[C@@H]3C=CO[C@@H](O[C@@H]4O[C@H](CO)[C@@H](O)[C@H](O)[C@H]4O)[C@@H]3[C@@]3(CO)O[C@@H]23)[C@@H]1OC(=O)/C=C/c1ccccc1, which “cell shape (Z-score)” value is on record?
**A.** 0.176

**Q.** With CC1OC(c2cc3oc(-c4ccccc4)cc(=O)c3c(O)c2O)CC(O)C1O (stereo not drawn) as the molecule, how does the “cell shape (Z-score)” value read?
**A.** 1.38 ± 1.7

**Q.** With COc1ccc(-c2ccc(=N)n(CCCC(=O)O)n2)cc1 as the molecule, how does the “cell shape (Z-score)” value read?
**A.** -0.738

**Q.** For CC1=CC2C(CC1=O)C(C)=CCC2C(C)C (stereo not drawn), which “cell shape (Z-score)” value is on record?
**A.** 1.58

**Q.** How did the “cell shape (Z-score)” value turn out when CC(C)[C@H](N)C(=O)OCCOCn1cnc2c(=O)[nH]c(N)nc21 was run?
**A.** 1.02

**Q.** COCC1OC(OC(C)(C)C2CCC3(C)C(O2)C(O)CC2(C)/C(=C4\CCC(O)C(C)(CCC(O)C(C)(C)O)C4)CCC23)C(NC(C)=O)C(O)C1O (stereo not drawn) was tested. Which “cell shape (Z-score)” value did it give?
**A.** -0.527

**Q.** With COc1cc([C@H]2Oc3cc([C@H]4Oc5cc(O)cc(O)c5C(=O)[C@@H]4O)ccc3O[C@@H]2CO)ccc1O as the molecule, how does the “cell shape (Z-score)” value read?
**A.** 1.6

**Q.** Which “cell shape (Z-score)” value does the source give for COc1cc(C2OCC3C(c4cc(OC)c(OC)c(OC)c4)OCC23)cc(OC)c1OC (stereo not drawn) here?
**A.** 0.312

**Q.** Which “cell shape (Z-score)” value does the source give for CCC1(c2ncc[nH]2)Cc2ccccc2O1 (stereo not drawn) here?
**A.** 1.92

**Q.** For CCC(NC(C)C)C(O)c1ccc(O)c2[nH]c(=O)ccc12 (stereo not drawn), which “cell shape (Z-score)” value is on record?
**A.** 1.41

**Q.** With O=C(OC1C(OC(=O)c2cccnc2)C(OC(=O)c2cccnc2)C(OC(=O)c2cccnc2)C(OC(=O)c2cccnc2)C1OC(=O)c1cccnc1)c1cccnc1 (stereo not drawn) as the molecule, how does the “cell shape (Z-score)” value read?
**A.** -1.67

**Q.** With CC1(CO)C=Cc2c(cc(O)c3c(=O)c(-c4ccc(O)cc4)coc23)O1 (stereo not drawn) as the molecule, how does the “cell shape (Z-score)” value read?
**A.** 0.41

**Q.** CCOC(=O)c1cnc2oc3ccc(O)cc3c2c1-c1ccccc1 was tested. Which “cell shape (Z-score)” value did it give?
**A.** -0.437

**Q.** For CC1(CO)CC(O)CC2(C)C3=C(CCC12)C(=O)OC3 (stereo not drawn), which “cell shape (Z-score)” value is on record?
**A.** -1.57

**Q.** How did the “cell shape (Z-score)” value turn out when COC(=O)C1[C@H]2C[C@H]3c4[nH]c5ccccc5c4CCN3C[C@@H]2CC[C@@H]1O (stereo partly drawn) was run?
**A.** -1.35
